# Test results from paper PMC7819943, “Rice protein-binding microarrays: a tool to detect cis-acting elements near promoter regions in rice”.
# Amino acid sequences for entries named in this document (tags omitted).
# UniProt Q0JBA9, entry or part of it: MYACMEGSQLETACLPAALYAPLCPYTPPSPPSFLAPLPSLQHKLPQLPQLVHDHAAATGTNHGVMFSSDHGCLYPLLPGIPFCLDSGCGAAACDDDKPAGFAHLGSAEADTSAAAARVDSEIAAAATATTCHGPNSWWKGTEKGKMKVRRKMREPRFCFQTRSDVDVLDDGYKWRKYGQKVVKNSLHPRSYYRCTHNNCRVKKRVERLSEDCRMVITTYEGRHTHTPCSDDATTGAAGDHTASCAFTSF
# This is one part of the list.
# Molecular target: OsWRKY34 (Oryza sativa, UniProt Q0JBA9 1-250)
# Assay: protein-binding microarray (RPBM); PBS, 2% BSA, 51.3 ng/ul salmon testes DNA, 50 uM zinc acetate, 200 nM TF, 25 C, 1 h; high values mean tight binding
# Conditions: protein: recombinant; tags: N-terminal polyhistidine and DsRed monomer fusion (pET32a); label: CyDye5-dUTP incorporated in the synthesized complementary strand; 3' TTTTT single-stranded linker to array surface; dsDNA, one strand shown
# In short: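 Binding signal here means per-feature fluorescence intensity in arbitrary units. The values were read on an Axon 4000B scanner after a custom Agilent array, double-stranded by primer extension with Cy5-dUTP, was incubated with 200 nM protein at 25 °C for 1 h in PBS with 2% BSA, salmon testes DNA and 50 µM zinc acetate, then washed. The proteins were transcription factors with an N-terminal polyhistidine tag and DsRed, expressed in E. coli BL21-CodonPlus and purified on Ni–NTA.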
row,Sequence,binding signal
1,AGAACCTTGGACTACTATTGTGGTTTTTATTTTTCTGGACCGGAGTCACCTAGTGCAG,8140 fluorescence intensity (a.u.)
2,TGTTTTGAATTCCATTGTTTTCCTATGTTCTTTTTTCCTACGGAGTCACCTAGTGCAG,8280 fluorescence intensity (a.u.)
3,GATATGATGGGTACAAACTGTTATAAACTAACATGTCTATCGGAGTCACCTAGTGCAG,8340 fluorescence intensity (a.u.)
4,GACCTCGCCTGTCGCCACATCATCGCTGCCGTCGCCTACTCGGAGTCACCTAGTGCAG,12900 fluorescence intensity (a.u.)
5,TAATTATTTTAATGGTTTTCTCGTTTTGCCACCGTGTATTCGGAGTCACCTAGTGCAG,8320 fluorescence intensity (a.u.)
6,ATCATGCTAGGGTACTCGATACTCTCTGAAATTTACCCTACGGAGTCACCTAGTGCAG,8290 fluorescence intensity (a.u.)
7,TAGATGTTTTGATTTTTTGTTTGCAACGTTTGACCATTCGCGGAGTCACCTAGTGCAG,8040 fluorescence intensity (a.u.)
8,TGCTGCATGCTGTTGTCTTAAGTTATTTGGAGCATTCTTCCGGAGTCACCTAGTGCAG,8400 fluorescence intensity (a.u.)
9,CCGCCGCCCATCAACTCCGATCCTCTCCTCACCTGGATATCGGAGTCACCTAGTGCAG,10100 fluorescence intensity (a.u.)
10,TTGGATTAGGGTGTTTGTCAATGGCATTTCATGGATTTTCCGGAGTCACCTAGTGCAG,10300 fluorescence intensity (a.u.)
11,TACTCTCCGGCGGTACCATCTGCTTCCGTTTGTTGATCGACGGAGTCACCTAGTGCAG,10400 fluorescence intensity (a.u.)
12,CGATGTGTTCCGTGGGAACCGAGAGGGAGGGAGGGGATAACGGAGTCACCTAGTGCAG,10500 fluorescence intensity (a.u.)
13,ACCTATGCATCTTTCGAAAGATTTTTATGATCATATCACACGGAGTCACCTAGTGCAG,8100 fluorescence intensity (a.u.)
14,TGCTATAAATGTTCTGCTTCTTTTTTAGTTGGAACCATTTCGGAGTCACCTAGTGCAG,8690 fluorescence intensity (a.u.)
15,AGCGGTTGTCGTGTGTGTTGGCGGCGTGGGCGGGACGAAGCGGAGTCACCTAGTGCAG,12100 fluorescence intensity (a.u.)
16,CACGGTGCGGGGTTTGCAGCCGGTCTGCACAGAATTTTTTCGGAGTCACCTAGTGCAG,8160 fluorescence intensity (a.u.)
17,GTACACTCACACCGTTGCCTCCTCATTTTATAAATATATACGGAGTCACCTAGTGCAG,9200 fluorescence intensity (a.u.)
18,AGTACTACTACACTACGTCCTTGTCTTCAATTCAGCGCCCCGGAGTCACCTAGTGCAG,8100 fluorescence intensity (a.u.)
19,CGAAGCGGGAGTCGAGCAGGGTGGGGATGGAGGCGTCGTCCGGAGTCACCTAGTGCAG,12100 fluorescence intensity (a.u.)
20,CCCAACGCGACTCACCATAAATTCCAGTAAGTCTCCATTCCGGAGTCACCTAGTGCAG,8120 fluorescence intensity (a.u.)
21,CGACGGAAGCGGGGTCGGGGAGGTTGAAGAGGAGATAGGGCGGAGTCACCTAGTGCAG,8290 fluorescence intensity (a.u.)

row,Sequence,binding signal
1,CATGTCTGAATCAGAGCACCTTATCTTTCGTCATTTTCTGCGGAGTCACCTAGTGCAG,8130 fluorescence intensity (a.u.)
2,TTATTTACAAACGAGTTCCATTTTTTTCTACGGTGATCGGCGGAGTCACCTAGTGCAG,8120 fluorescence intensity (a.u.)
3,TCACACACACCAAGCCACACCAGCAACAGCAGCAAGCAACCGGAGTCACCTAGTGCAG,10500 fluorescence intensity (a.u.)
4,GTAGGTTGATTTTATGATTTGCGTTACATACATCCTTATTCGGAGTCACCTAGTGCAG,8270 fluorescence intensity (a.u.)
5,GGTGTGGTGGTGGTGGGGATGAGGAGCGCGATTGGGAGAGCGGAGTCACCTAGTGCAG,12800 fluorescence intensity (a.u.)
6,TGCGACCTCACCGTCATGGACGAACACCTGCTCACCGTCGCGGAGTCACCTAGTGCAG,8740 fluorescence intensity (a.u.)
7,ACCACGTCCCTTTCCATTTTCCCTTGTTTTTTTTCCTCCTCGGAGTCACCTAGTGCAG,11200 fluorescence intensity (a.u.)
8,TCGCCGTTTCGCCGCTGGCCGCCGCCACCATCTCGCACCTCGGAGTCACCTAGTGCAG,8140 fluorescence intensity (a.u.)
9,TATTTATTTATTTTTGACTTACTTTATTATCTAAAGTACTCGGAGTCACCTAGTGCAG,8080 fluorescence intensity (a.u.)
10,GTTTCCTGACGTTTGATTTGCTTTGTATTGCAGGCTGTGACGGAGTCACCTAGTGCAG,12400 fluorescence intensity (a.u.)
11,GGCTGGGATTGGCTTCGAACTCTTTCTTTCCAGCCACGACCGGAGTCACCTAGTGCAG,8480 fluorescence intensity (a.u.)
12,TGTGATAATACCTGTACTCTCTTCTTGACCAGTCTTCATTCGGAGTCACCTAGTGCAG,9010 fluorescence intensity (a.u.)
13,ATGCGTTTCTGTTTCTCGGCCAATGCTGATCCGACAACGTCGGAGTCACCTAGTGCAG,8800 fluorescence intensity (a.u.)
14,GGCATTGTGGTCCTCACGGTCTCACTTGACCGTGAACAGCCGGAGTCACCTAGTGCAG,8640 fluorescence intensity (a.u.)
15,GGGTATCTGTCGCTTTGCTTCGCCCGCCTGCGCGTCATCACGGAGTCACCTAGTGCAG,10400 fluorescence intensity (a.u.)
16,CGCACTCACACATCCTCGAATACGCGTCTAACACATACTCCGGAGTCACCTAGTGCAG,9440 fluorescence intensity (a.u.)
17,AGTACTCCCAAGCAACGTTGACTTGACTTCCCAACTCCCACGGAGTCACCTAGTGCAG,11100 fluorescence intensity (a.u.)
18,GTCACGGCGCCTATTAGGCCTCCTTTTAAACCACCGAAAACGGAGTCACCTAGTGCAG,10300 fluorescence intensity (a.u.)
19,GCACTCCACGCCCTCATCCCATCGACCCACCCATCTCTCCCGGAGTCACCTAGTGCAG,9840 fluorescence intensity (a.u.)
20,CTGGCGAGCAGAGCAGGGGAGGGGAGGGGAGGGGATCGGGCGGAGTCACCTAGTGCAG,14200 fluorescence intensity (a.u.)
21,CGTTGACTTTTTTAAATATGTTTGACCGTTTATGTTATTTCGGAGTCACCTAGTGCAG,44100 fluorescence intensity (a.u.)

# Single entries from above:
# binding signal, GGCTGGGATTGGCTTCGAACTCTTTCTTTCCAGCCACGACCGGAGTCACCTAGTGCAG is entered as 8480 fluorescence intensity (a.u.)
# binding signal, TCGCCGTTTCGCCGCTGGCCGCCGCCACCATCTCGCACCTCGGAGTCACCTAGTGCAG is entered as 8140 fluorescence intensity (a.u.)
